The supplement of paper PMC11732987, “Enantioselective OTUD7B fragment discovery through chemoproteomics screening and high-throughput optimisation” (Communications Chemistry, 2025)
The list shows a part of the results. The data scatter; read single values as rough.

Molecular target: ATP1A1 C249 (UniProt P05023)
Assay: log2 mean competition ratio of IA-DTB cysteine labelling (DMSO/compound) (log2 ratio); higher = stronger cysteine engagement by compound
Details: 50 µM; treatment time: 4 h; cell line lysate: HEK293T
Protocol: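 IA-DTB competitive cysteine chemoproteomics in HEK293T RIPA lysate. Lysates were treated with compound 29 or 30 at 50 or 200 µM for 4 h, then IA-DTB (500 µM, 1 h), trypsin-digested, NeutrAvidin-enriched and analysed by diaPASEF. Competition ratio = intensity DMSO / intensity compound (n=4 treated, n=64 DMSO); binding: mean log2 CR ≥ 1 and p ≤ 0.05 plus QC filters. Target is the cysteine site.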

| Structure (SMILES) | log2 mean competition ratio |
| --- | --- |
| O=C(CCl)N[C@@H]1CCCc2ccccc21 | 0.234 |
| O=C(CCl)N[C@H]1CCCc2ccccc21 | 0.503 |

Same assay, conditions: 200 µM; treatment time: 4 h; cell line lysate: HEK293T

| Structure (SMILES) | log2 mean competition ratio |
| --- | --- |
| O=C(CCl)N[C@@H]1CCCc2ccccc21 | 0.238 |
| O=C(CCl)N[C@H]1CCCc2ccccc21 | 0.282 |
